Source: PubChem BioAssay AID540275 (National Center for Advancing Translational Sciences (NCATS), 2011)
In all, about 320,000 compounds went through this assay and about 620 (0.19%) were called active. The shares of active, inactive and inconclusive entries below differ from those in the screen. Rule as the data show it: active = activation above about 80%; inconclusive = between about 30% and that limit; inactive = weaker than that.

By UniProt entry, the sequences of proteins in these tests, tags left out.
UniProt Q8NER1, whole entry, looked up: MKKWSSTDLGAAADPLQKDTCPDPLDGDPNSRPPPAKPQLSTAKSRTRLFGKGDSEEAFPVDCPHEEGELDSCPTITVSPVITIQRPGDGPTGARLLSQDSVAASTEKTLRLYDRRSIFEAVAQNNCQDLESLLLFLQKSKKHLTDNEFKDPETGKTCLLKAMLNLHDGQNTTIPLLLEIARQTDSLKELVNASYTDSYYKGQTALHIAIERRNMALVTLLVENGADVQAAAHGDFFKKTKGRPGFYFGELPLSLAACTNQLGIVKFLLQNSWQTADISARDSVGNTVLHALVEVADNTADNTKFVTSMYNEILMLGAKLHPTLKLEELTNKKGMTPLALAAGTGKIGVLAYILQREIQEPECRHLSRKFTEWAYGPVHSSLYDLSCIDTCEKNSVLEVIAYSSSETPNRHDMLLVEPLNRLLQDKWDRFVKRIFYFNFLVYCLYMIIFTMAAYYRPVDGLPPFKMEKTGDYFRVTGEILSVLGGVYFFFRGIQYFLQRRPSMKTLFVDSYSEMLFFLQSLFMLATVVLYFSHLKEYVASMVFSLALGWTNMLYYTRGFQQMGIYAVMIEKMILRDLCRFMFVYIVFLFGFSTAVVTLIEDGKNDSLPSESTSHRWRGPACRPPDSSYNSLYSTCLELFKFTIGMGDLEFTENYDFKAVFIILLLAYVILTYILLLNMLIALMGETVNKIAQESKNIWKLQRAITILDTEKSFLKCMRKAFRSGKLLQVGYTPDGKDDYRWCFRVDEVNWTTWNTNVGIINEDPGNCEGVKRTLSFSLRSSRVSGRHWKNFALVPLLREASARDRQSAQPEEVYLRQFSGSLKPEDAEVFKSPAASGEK

biological target: Transient receptor potential cation channel subfamily V member 1 (Homo sapiens) (UniProt Q8NER1); test: HTS Assay for Compounds that Act as Agonists of the Vanilloid Receptor 1; settings: TRPV1-expressing cells, Fluo-8 calcium influx, agonist mode; at 8.33 µM, active compounds read high; also: 0% is about no effect
Outline: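 TRPV1-expressing cells were cultured overnight at 35.5C and loaded with Fluo-8 calcium dye for 40 to 90 min at room temperature. After a 10 s baseline, compound was added and calcium influx was read kinetically for 3 min (ex 480/em 520 nm).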

| Compound | activation |
| --- | --- |
| O=C(c1cccnc1)N1CCC(Oc2ccc(C(=O)N3CCCCO3)cc2)CC1 | inactive: -0.216% |
| CC(C)OCCCn1c(=S)[nH]c2cc3c(cc2c1=O)OCO3 | inconclusive: 37.4% |
| NNC(=O)CCCNc1ncc(C(F)(F)F)cc1Cl | inconclusive: 33.5% |
| CC(C)(C)c1nnc(N/N=C/c2ccccc2O)n(N)c1=O | inactive: 6.21% |
| N#CC1=C(N)NC(SCC(=O)Nc2ccc(Br)cc2)=C(C#N)C12CCCCC2 | inactive: 6.16% |
| Cc1ccc(CC(=O)N2CCN(c3ccccc3F)CC2)cc1 | inconclusive: 34.7% |
| CCn1c(/C=C2\C(=O)N(C(C)C)c3ccccc32)nc2ccccc2c1=O | inconclusive: 43.3% |
| O=C(NC(=S)Nc1ccc(N2CCCCC2)cc1)c1cccs1 | inactive: 9.97% |
| Cc1noc(NC(=O)c2ccc(Cl)cc2)c1Cl | inconclusive: 45.5% |
| COc1ccc(CNC(=O)COC(=O)CNC(=O)c2sc3ccccc3c2Cl)cc1OC | inconclusive: 47.1% |
| O=c1cc(CN2CCC3(CC2)OCCO3)c2c(ccc3ccccc32)o1 | inconclusive: 34% |
| Cc1cccc(N2CCN(C(=O)Cc3ccc(Br)cc3)CC2)c1C | inconclusive: 64.3% |
| COC(=O)[C@@H]1C[C@@]2(O)[C@@H](O)[C@@H](O)[C@@H](O)C[C@H]2N1Cc1ccc(Cl)cc1 | inactive: -2.46% |
| CC(C)c1ccc(NC(=S)Nc2ccc3cn[nH]c3c2)cc1 | inconclusive: 58.3% |
| O=C(NCCCN1CCN(CCCNC(=O)c2cccc([N+](=O)[O-])c2)CC1)c1cccc([N+](=O)[O-])c1 | inactive: 2.62% |
| CCN(CC)c1ccc(S(=O)(=O)N(CC)CC)cc1NC(=O)C1CCCC1 | inconclusive: 55.5% |
| CC(/C=N/Nc1nc2ccccc2[nH]1)=C\c1ccccc1 | inconclusive: 34.3% |
| Cc1ccc(C(C)n2cc(C(=O)NCc3ccncc3)nn2)cc1 (centres undefined) | inconclusive: 41.2% |
| COc1ccc(N2CCN(c3ccc(N4C(=O)COCC4=O)cc3[N+](=O)[O-])CC2)cc1 | inactive: 2.65% |
| Cc1ccc(S(=O)(=O)/N=C(/NNC(=O)c2cccc(Cl)c2)c2ccccc2)cc1 | inconclusive: 35.9% |
| Cc1ccccc1Cn1c(C)nc2ccccc21 | inactive: 2.13% |
| O=S(=O)(Nc1ccc(N2CCCCC2)cc1)c1cccs1 | inconclusive: 36.9% |
| CCOc1ccccc1OCCCC(=O)Nc1nc2ccccc2[nH]1 | inactive: 0.601% |

Random excerpt: four records from the list

| Compound | activation |
| --- | --- |
| CC(/C=N/Nc1nc2ccccc2[nH]1)=C\c1ccccc1 | inconclusive: 34.3% |
| NNC(=O)CCCNc1ncc(C(F)(F)F)cc1Cl | inconclusive: 33.5% |
| N#CC1=C(N)NC(SCC(=O)Nc2ccc(Br)cc2)=C(C#N)C12CCCCC2 | inactive: 6.16% |
| O=C(NC(=S)Nc1ccc(N2CCCCC2)cc1)c1cccs1 | inactive: 9.97% |

Next entries

| Compound | activation |
| --- | --- |
| O=c1c2c(nc3cc(-c4ccc(F)cc4)[nH]n13)CCC2 | inactive: -0.811% |
| CN(Cc1ccc(-n2cccn2)cc1)C(=O)c1cnn2c1NC(c1ccco1)CC2C(F)(F)F (centres undefined) | inactive: -4.56% |
| N#Cc1cccc(NC(=O)CC2CCCCC2)c1 | inconclusive: 38.7% |
| Cc1c(NC(=O)COC(=O)c2c3c(nc4ccccc24)CCCC3)c(=O)n(-c2ccccc2)n1C | inactive: 2.74% |
| CC(=O)Nc1sc2c(c1-c1nc3ccccc3s1)CCN(C(C)C)C2 | inconclusive: 35.4% |
| Cc1ccc(C(=O)Nc2ccccc2-c2ccccc2)cc1[N+](=O)[O-] | inconclusive: 33.8% |
| Cc1cc(C(=O)CSc2n[nH]c(-c3ccccc3F)n2)c(C)n1Cc1cccs1 | inconclusive: 39.5% |
| O=C(Cc1sc(-c2ccccc2Cl)nc1-c1ccccc1)Nc1ccccc1 | inconclusive: 60.5% |
| Fc1ccc(/C=N/NC2=Nc3cccc4cccc2c34)cc1 | inconclusive: 44.5% |
| O=C(CCSc1ccccc1Cl)Nc1cccc([N+](=O)[O-])c1 | inconclusive: 50.9% |
| CCC(C)(C)C1CCC(NC(=O)N2CCN(c3ccccc3O)CC2)CC1 (centres undefined) | inconclusive: 78.3% |
| COc1cccc(NC(=O)c2c(C)nn(-c3ccccc3)c2Cl)c1 | inconclusive: 44.6% |
| O=C(NCc1nc(-c2ccc(C(F)(F)F)cc2)no1)c1cccs1 | inconclusive: 53.8% |
| CCOC(=O)C1(CCc2ccccc2)CCN(C(=O)CCc2cnn(C)c2)CC1 | inconclusive: 44.3% |
| CN(CC(=O)Nc1ccccc1Br)C(=O)c1cccnc1Nc1cccc(C(F)(F)F)c1 | inactive: 18.6% |
| CC/C(=N/O)C(=O)c1ccc(Br)cc1 | inactive: -1.76% |
| Cc1c(C)c2c(OCC(=O)N[C@@H](C)C(=O)O)cc3c(c2oc1=O)CCC(C)(C)O3 | inactive: -0.986% |
| Cc1cc2ncc(-c3ccc(Cl)cc3)cn2n1 | inconclusive: 49.7% |
| Cc1ccc(SCC(=O)NCc2ccccc2C)cc1 | inconclusive: 46% |
| Cc1ccc2[nH]c3c(N4CCN(Cc5ccccc5)CC4)ncnc3c2c1 | inconclusive: 40.4% |
| C/C(=N\NC(=O)c1ccccc1-n1cccc1)C1CC1 | inactive: -0.116% |
| CC(C)(C)C(=O)Nc1ccc(C(=O)Nc2cccnc2)cc1 | inconclusive: 64.5% |
| O=C(N[C@H]1CC1c1ccccc1)c1ccc([N+](=O)[O-])cc1 (some centres undefined) | inconclusive: 46.3% |

| Compound | activation |
| --- | --- |
| C/C(=N/NC(=O)CCc1ccccc1)c1ccc2c(c1)OCO2 | inconclusive: 48.4% |
| Cc1ccc2nc(-c3ccccn3)cc(C(=O)Nc3ccc4c(c3)OCO4)c2c1 | active: 90.2% |
| Brc1ccc(-c2ccc(/C=N/Nc3nc4ccccc4[nH]3)o2)cc1 | inconclusive: 34.2% |
| CCOC(=O)c1nc(C)nc(Sc2n[nH]c(-c3ccccc3)n2)c1C | inactive: -1.95% |
| CCCOC(=O)c1ccc(NC(=O)/C=C/c2cccs2)cc1 | inconclusive: 72.3% |
| COc1ccc(OC)c(N(CC(=O)Nc2cccnc2)S(=O)(=O)c2ccc(C)cc2)c1 | inconclusive: 39.4% |
| CCOC(=O)C1CCCN(C(=O)Cc2ccc(Cl)cc2)C1 (centres undefined) | inconclusive: 36% |
| Cc1cccc(NC(=O)CCCc2ccccc2)c1 | inconclusive: 39.6% |
| CCCc1cc(C(=O)Nc2ccc(C(=O)c3ccccc3)cc2)n(C)n1 | inconclusive: 47.9% |
| O=C(COc1ccc2ccccc2c1Br)Nc1ccncc1 | inconclusive: 51.1% |
| O=C(NC(=S)NC1CCCCC1)c1ccccc1 | inconclusive: 38.6% |
| CCc1ccc(OCCNC(=O)OCc2ccccc2)cc1 | inconclusive: 52.2% |
| CCOC(=O)C1CCN(C(=O)Nc2cc(Cl)cc(Cl)c2)CC1 | inconclusive: 77.8% |
| Cc1ccc(C(=O)N/C(=C/c2cccs2)C(=O)NCCCn2ccnc2)cc1 | inactive: -0.923% |
| Cc1ccc(OCC(=O)Nc2ccc(F)cc2)cc1C | inconclusive: 70.2% |
| S=C(NCc1ccccc1)NCC1COc2ccccc2O1 (centres undefined) | inconclusive: 64.9% |
| COc1cc(NC(=O)CN2C(=O)CSc3ccc(S(=O)(=O)N4CCCC4)cc32)cc(OC)c1 | inconclusive: 32.4% |
| Cc1ccc(N(CC(=O)Nc2ccccc2-c2ccccc2)S(=O)(=O)c2ccccc2)cc1 | inconclusive: 46% |
| COC(=O)N1C(=O)[C@](c2ccccc2)(C2CCCC2)N1C(=O)OC | inconclusive: 32.1% |
| Cn1c(CSc2nc3ccccc3n2C)nc2ccccc21 | inactive: 8.11% |
| COc1cc(-c2nc3ccc(C)cn3c2NCc2ccccc2)ccc1SC1CCCCC1 | inconclusive: 59.9% |
| O=S(=O)(c1ccc(=S)[nH]c1)N1CCCCC1 | inactive: -3.52% |
| O=C(Nc1ccc(NC(=O)c2cccnc2Cl)cc1)c1cccc(Cl)c1 | inactive: 10.6% |

Three consecutive records out of the list so far, quoted:

| Compound | activation |
| --- | --- |
| COc1ccc(CNC(=O)COC(=O)CNC(=O)c2sc3ccccc3c2Cl)cc1OC | inconclusive: 47.1% |
| O=c1cc(CN2CCC3(CC2)OCCO3)c2c(ccc3ccccc32)o1 | inconclusive: 34% |
| Cc1cccc(N2CCN(C(=O)Cc3ccc(Br)cc3)CC2)c1C | inconclusive: 64.3% |

(further entries)

| Compound | activation |
| --- | --- |
| Cc1cccc(N2CCN(C(=O)C3COc4ccccc4O3)CC2)c1C (centres undefined) | inconclusive: 43.7% |
| O=C(CSc1ccc(-c2ccccn2)nn1)c1ccc(F)cc1 | inconclusive: 58% |
| COc1ccc(NC(=O)CNC(=O)Cn2c(C)cc3ccccc3c2=O)cc1OC | inactive: 1.33% |
| CCCn1c(N2CCN(C(=O)N3CCCCC3)CC2)nc2ccccc21 | inconclusive: 51.7% |
| COc1ccc(Nc2ncc(C(=O)N3CCN(c4ccc(F)cc4)CC3)c3ccccc23)cc1 | inactive: -0.451% |
| COc1ccc(CC(=O)NCc2n[nH]c(=S)n2-c2cccc(C)c2)cc1 | inactive: -3.29% |
| CCCc1ccc(OC(=O)c2ccc(O)cc2Cl)cc1 | inconclusive: 74% |
| COc1ccc(OC)c(/C=N/Nc2nncn2/N=C/c2cc(OC)ccc2OC)c1 | inactive: 0.284% |
| Cc1cc(C)c2sc(NC(=O)C3=COCCO3)nc2c1 | inconclusive: 65.5% |
| O=C(CSCc1ccc(Cl)cc1)NCc1ccc2c(c1)OCO2 | inconclusive: 36.6% |
| CCN(CC)CCNC(=O)c1ccc(NC(=O)c2cc(S(=O)(=O)N3CCCCC3)ccc2C)cc1 | inactive: -1.42% |
| CC(C)C(=O)Nc1ncc(Cc2ccccc2Cl)s1 | inconclusive: 31.6% |
| CCOC(=O)c1ccc(NC(=O)c2nc[nH]c2C(=O)N(C)Cc2ccccc2)cc1 | inactive: -0.993% |
| CCOc1ccc(NC(=O)N2CCC(c3nc4ccccc4o3)CC2)cc1 | inconclusive: 67.4% |
| O=C(c1ccc(F)cc1)N1CCN(c2ccc([N+](=O)[O-])cc2-n2cccc2)CC1 | inactive: -2.43% |
| Cc1ccc(OC(=O)COc2ccccc2)c(-n2nc3ccccc3n2)c1 | inconclusive: 32% |
| CC(=O)NCCC(=O)N(Cc1ccccc1)c1nc2c(C)cccc2s1 | inconclusive: 72.3% |
| CCO[C@H]1OC(C(=O)N2CCN(Cc3ccc4c(c3)OCO4)CC2)=C[C@@H](c2csc3ccccc23)[C@@H]1CCCO | inconclusive: 36.2% |
| O=C(COC(=O)c1ccc(Br)cc1)NCc1ccc(F)cc1 | inconclusive: 57.3% |
| CC(C)[C@@H]1N[C@]2(C(=O)Nc3ccccc32)[C@@H]2C(=O)N(c3cccc(C(F)(F)F)c3)C(=O)[C@@H]21 | inconclusive: 47.6% |
